Part of at least one peptide drawing is inferred or uncertain, most often the ends. Ends that are not written are not given here.
Tests used:
His-PDK1 = target: T1, His-PDK1 (Homo sapiens, UniProt O15530); assay: Conversion of His-PDK1 into a Ser473 PKBα kinase by synthetic peptide (P-Ser473 immunoblot); type: biochemical; settings: peptide at 20 µM, 3-phosphoinositide vesicles, MgATP
T1 construct: made in house; host or cells: Sf21 insect cells (baculovirus, pFASTBAC HTb)
T1 sequence (O15530 1-556): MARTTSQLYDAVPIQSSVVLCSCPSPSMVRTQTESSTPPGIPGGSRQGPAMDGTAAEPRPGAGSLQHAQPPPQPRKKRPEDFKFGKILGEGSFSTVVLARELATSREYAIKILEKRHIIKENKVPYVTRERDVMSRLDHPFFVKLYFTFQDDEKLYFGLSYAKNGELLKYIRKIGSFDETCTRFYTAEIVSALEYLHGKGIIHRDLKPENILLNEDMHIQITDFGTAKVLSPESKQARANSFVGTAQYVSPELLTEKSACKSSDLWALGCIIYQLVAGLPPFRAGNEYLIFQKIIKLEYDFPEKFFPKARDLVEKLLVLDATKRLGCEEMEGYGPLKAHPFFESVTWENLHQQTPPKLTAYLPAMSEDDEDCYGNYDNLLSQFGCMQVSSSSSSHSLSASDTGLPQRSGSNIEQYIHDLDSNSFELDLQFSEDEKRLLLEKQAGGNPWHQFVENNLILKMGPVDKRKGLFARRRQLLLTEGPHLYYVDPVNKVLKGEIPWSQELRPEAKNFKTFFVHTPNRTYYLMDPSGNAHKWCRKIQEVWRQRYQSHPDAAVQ
Procedure: FIG. 6. Conversion of PDK1 into an enzyme that can phosphorylate both Thr308 and Ser473 of PKB by addition of a synthetic peptide. […] After allowing to stand for 1 h at 4° C. GST-PKBα, MgATP and the indicated phospholipid vesicles containing 100 μM PtdCho, 100 μM PtdSer, and either 10 μM sn-1-stearoyl-2-arachidonoyl-D-PtdIns(3,4,5)P3 (1,2-SAD-PtdIns(3,4,5)P3), or sn-1,2 di-palmitoyl-D-PtdIns(3,4,5)P3 (C16-PtdIns(3,4,5)P3) or sn-1,2 di-palmitoyl-D-PtdIns(3,4)P2 (C16-PtdIns(3,4)P2) were added. After 1 h at 30° C., the reactions were terminated by making the solutions 1% in SDS, the samples were subjected to SDS/polyacylamide gel electrophoresis and immunoblotted using P-Ser473 antibody. Identical results were obtained in 2 separate experiments. […]
Phosphorylation of GST-PKBα by incubation with GST-PIF. In experiments in which the phosphorylation of PKBα was determined using the phospho-specific Ser473 PKBα antibodies, the incubations were identical to the Stage 1 described above except that the reactions were terminated by the addition of 1% (by mass) SDS and immunoblotting is carried out as described below. In experiments in which the sites of phosphorylation on PKBα are determined the incubations were identical to the Stage 1 described above except [γ^32P] […]

[1] = target: T2, endogenous PDK1 associated with GST-PIF (Homo sapiens, UniProt O15530); assay: Dissociation of endogenous PDK1 from purified GST-PIF by peptide; type: binding; settings: peptide 100 μM, GST-PIF purified from 293 cells
T2 construct: endogenous in cells; host or cells: 293 cells transfected with pEBG2T GST-PIF; endogenous PDK1 co-purified on glutathione-Sepharose
Description: In contrast, a mutant peptide in which the residue corresponding to Asp978 was changed to Ala (termed “D978A-Region B peptide”) interacted with PDK1>fold 10-less strongly (FIG. 13).

Sequence: REPRILSEEEQEMFRDFDYIADWC [Region B peptide]
- inducing His-PDK1 to phosphorylate PKBα at Ser473 (His-PDK1): capable of inducing
- dissociation of the endogenous PDK1 from GST-PIF [1]: resulted in the dissociation

From patent US20070196883A1, “ENZYME” (UNIVERSITY OF DUNDEE, priority 1999, published 2007)
